Results published in PubChem BioAssay AID588590 (National Center for Advancing Translational Sciences (NCATS), 2011).
In all, about 390,000 compounds went through this assay and about 4,000 (1%) were called active. Inconclusive results, whose numbers are uncertain, are shown with a selection of clear calls. Calls follow the shape of the dose curve; as a rule, active = well fitted inhibition curve with a large enough effect; inconclusive = small, poorly fitted or top-dose-only effect, or another doubt; inactive = no such curve, though single readings can be large or run the other way. Where the call is inconclusive, the potency comes from a doubtful curve fit.

The chains behind the UniProt entries cited, without tags or fusion partners. Where a name states a change or a piece, a line headed by the entry shows the natural chain unless it says otherwise.
UniProt Q9UNA4: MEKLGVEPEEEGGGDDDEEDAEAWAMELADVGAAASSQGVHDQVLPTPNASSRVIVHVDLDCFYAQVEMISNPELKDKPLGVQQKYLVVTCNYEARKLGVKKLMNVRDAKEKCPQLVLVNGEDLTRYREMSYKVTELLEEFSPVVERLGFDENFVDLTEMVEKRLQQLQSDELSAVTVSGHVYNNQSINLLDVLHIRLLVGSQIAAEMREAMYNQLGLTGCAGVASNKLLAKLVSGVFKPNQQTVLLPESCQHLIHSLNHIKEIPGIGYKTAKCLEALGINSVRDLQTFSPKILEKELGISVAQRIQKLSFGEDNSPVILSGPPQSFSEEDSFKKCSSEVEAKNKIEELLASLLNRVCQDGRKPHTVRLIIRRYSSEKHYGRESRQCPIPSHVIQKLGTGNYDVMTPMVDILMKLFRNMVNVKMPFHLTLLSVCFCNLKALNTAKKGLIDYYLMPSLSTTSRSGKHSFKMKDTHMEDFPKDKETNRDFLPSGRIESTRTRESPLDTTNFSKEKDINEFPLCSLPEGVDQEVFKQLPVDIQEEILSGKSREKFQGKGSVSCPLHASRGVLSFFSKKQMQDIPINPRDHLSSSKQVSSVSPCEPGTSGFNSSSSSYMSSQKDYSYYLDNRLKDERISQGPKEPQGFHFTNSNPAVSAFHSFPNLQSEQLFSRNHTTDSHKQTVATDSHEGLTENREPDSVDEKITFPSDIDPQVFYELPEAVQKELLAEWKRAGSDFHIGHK

Molecular target: DNA polymerase iota (Homo sapiens) (UniProt Q9UNA4)
Experiment: qHTS for Inhibitors of Polymerase Iota
Conditions: Pol iota fluorescent replication assay, 10 min; series mostly up to 115 µM
Summary of the method: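 Pol iota at 10 nM preincubated 15 min with compounds at room temperature; reaction started with fluorescent substrate, 50 nM final. Fluorescence read kinetically at 0 and 10 min; buffer-only wells as negative control.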
Potency is read from the fitted curve at half-maximal effect.

Row | Structure (SMILES) | Potency
1 | Cc1cccc(C(=O)OCC(=O)NCc2ccco2)c1 | active: 79.4 µM
2 | O=C(O)C1OC(Oc2cc3oc(-c4ccccc4)cc(=O)c3c(O)c2O)C(O)C(O)C1O (stereo unspecified) | active: 10 µM
3 | COc1ccc(-c2c(C#N)c(SCC(=O)Nc3ccccc3)nc3c2CCCC3)cc1 | inconclusive: 14.1 µM [inhibitor, single point]
4 | O=C(O)c1cc(NS(=O)(=O)c2ccc(NC3CCCCC3)c([N+](=O)[O-])c2)cc(C(=O)O)c1 | inactive
5 | CC(C)NC(=O)c1cc(C(=O)c2cc(Cl)ccc2O)coc1=N | inconclusive: 12.6 µM [inhibitor, partial curve, poor fit]
6 | Cc1ccc(NC(=O)CCC(=O)NNC(=O)COc2ccc([N+](=O)[O-])cc2)cc1C | inconclusive: 89.1 µM [inhibitor, single point]
7 | Cc1c(C(=O)O)nn(-c2ccccc2)c(=O)c1C#N | inconclusive: 3.55 µM [inhibitor, full curve, poor fit]
8 | COc1ccc(-c2cc(C(F)(F)F)nc(S(=O)(=O)CCCC(=O)Nc3cc(C)on3)n2)cc1OC | inconclusive: 28.2 µM [inhibitor, single point]
9 | COc1ccc(NC(=O)CN(c2ccc(C)cc2)S(=O)(=O)c2c(C)nn(C)c2C)cc1OC | inconclusive: 89.1 µM [inhibitor, partial curve, poor fit]
10 | COc1ccc(/C=C2\CCc3c2nc2ccccc2c3C(=O)O)cc1OC | inconclusive: 17.8 µM [inhibitor, partial curve]
11 | CCC(C(=O)NCCc1ccc(OC)c(OC)c1)n1nc(C)c2sc3ccccc3c2c1=O (stereo unspecified) | inconclusive: 89.1 µM [inhibitor, single point]
12 | CN(CCN(C)C(C)(C)C)C(=O)C(c1ccccc1)c1ccccc1 | inconclusive: 39.8 µM [inhibitor, partial curve, poor fit]
13 | Cn1c(=O)[nH]c(=O)c2c1nc(Br)n2CCSc1nc2ccccc2o1 | inconclusive: 70.8 µM [inhibitor, single point]
14 | CC(=O)Nc1ccc(N2CCN(c3ccc(F)cc3)CC2)cc1 | inconclusive: 10 µM [inhibitor, single point]
15 | COc1ccc(C(=O)N2CCN(C3CCC(c4ccccc4)CC3)CC2)cc1OC (stereo unspecified) | inconclusive: 39.8 µM [inhibitor, partial curve, poor fit]
16 | CCOC(=O)N1CCN(C(=O)c2ccc3c(=O)n(-c4ccc(OC)cc4)c(=S)[nH]c3c2)CC1 | inconclusive: 112 µM [inhibitor, single point]
17 | Cc1ccccc1Nc1nc(N)nc(COC(=O)/C=C/c2ccco2)n1 | inactive
18 | CCOC(=O)C1=C(C)N(CCCC(=O)O)C(=O)NC1c1ccc([N+](=O)[O-])cc1 (stereo unspecified) | inactive
19 | CCCCC(c1nnnn1Cc1ccco1)N1CCN(c2nc3ccccc3s2)CC1 (stereo unspecified) | inconclusive: 14.1 µM [inhibitor, partial curve, poor fit]
20 | Nc1cc2sc(-c3ccc(C(=O)O)cc3)nc2cc1Cl | inconclusive: 22.4 µM [inhibitor, single point]
21 | O=[N+]([O-])c1cccc(C2Nc3cccc4cccc(c34)N2)c1 | inconclusive: 31.6 µM [inhibitor, partial curve, poor fit]

Row | Structure (SMILES) | Potency
22 | Cc1cc(OCC(=O)Nc2cc(-c3nc4ccccc4[nH]3)ccc2C)ccc1Cl | inconclusive: 79.4 µM [inhibitor, single point]
23 | COc1ccc(-c2noc(N3CCN(c4cccc(Cl)c4)CC3)n2)cc1OC | inconclusive: 100 µM [inhibitor, single point]
24 | COC(=O)c1ccc(COc2ccc(/C=N/Nc3cccc(C(=O)O)c3)cc2)cc1 | active: 31.6 µM
25 | O=C(CCCOc1ccc(Cl)cc1Cl)NCCc1ccccn1 | inactive
26 | CCc1cc2c(=O)oc(-c3ccccc3F)nc2s1 | inconclusive: 14.1 µM [inhibitor, full curve, poor fit]
27 | CN(C)CC(=O)Nc1ccc(S(N)(=O)=O)cc1 | inconclusive: 44.7 µM [inhibitor, single point]
28 | Cc1ccc(N(CC(=O)NCC(C)c2ccccc2)S(=O)(=O)N(C)C)cc1 (stereo unspecified) | inactive
29 | N#C/C(=C/c1ccc(C(=O)O)cc1)C(=O)Nc1ccccc1 | inconclusive: 12.6 µM [inhibitor, full curve, poor fit]
30 | CC1CCN(S(=O)(=O)c2ccc(NC(=O)C3CSC4(C)CCC(=O)N34)cc2)CC1 (stereo unspecified) | inconclusive: 22.4 µM [inhibitor, full curve, poor fit]
31 | COCCn1c(NC(=S)NC(=O)C2CC2)cc(=O)[nH]c1=O | inactive
32 | O=C(C[C@H]1C[C@H](C(=O)N2CCOCC2)[C@@]2(CCC3CCCC3)c3[nH]c4cc(-c5ccco5)ccc4c3CCN2C1=O)NCCCn1ccnc1 | inconclusive: 35.5 µM [inhibitor, partial curve, poor fit]
33 | COc1ccc(Oc2nc3c(c(=O)n(C)c(=O)n3C)n2Cc2ccccc2Cl)cc1 | inconclusive: 89.1 µM [inhibitor, single point]
34 | O=C(c1ccc(COc2c(F)c(F)c(F)c(F)c2F)o1)N1CCN(Cc2ccc3c(c2)OCO3)CC1 | inconclusive: 14.1 µM [inhibitor, full curve, poor fit]
35 | O=C(CN1C(=O)/C(=C2/SC(=S)N(CCS(=O)(=O)O)C2=O)c2ccccc21)Nc1cccc(C(F)(F)F)c1 | inconclusive: 8.91 µM [inhibitor, full curve, poor fit]
36 | CCCn1cnc2cc(NCc3ccccn3)ccc21 | inconclusive: 39.8 µM [inhibitor, single point]
37 | Cc1ccc(C(=O)/C=C/c2cn(CC(O)CN3CCc4ccccc43)c3ccccc23)cc1 (stereo unspecified) | inconclusive: 79.4 µM [inhibitor, single point]
38 | Cc1ccc(NC(=O)CCC(=O)N/N=C/c2ccccc2O)cc1 | inconclusive: 31.6 µM [inhibitor, full curve, poor fit]
39 | COC(=O)c1cc(C)nc2c1C(=O)C(=O)C=C2N1CCOCC1 | active: 1.26 µM
40 | O=C(CCC(=O)N1CCN(c2ccc(O)cc2)CC1)c1cccs1 | active: 70.8 µM
41 | CC(C)(C)OC(=O)N[C@@H](Cc1ccccc1)c1nnc(SCC(N)=O)o1 | inconclusive: 89.1 µM [inhibitor, partial curve, poor fit]
42 | O=c1oc2ccccc2nc1/C=C(O)/C=C\c1ccccc1 | inconclusive: 17.8 µM [inhibitor, full curve, poor fit]

Row | Structure (SMILES) | Potency
43 | Cc1oc(CSCC2CCCO2)cc1C(=O)O (stereo unspecified) | inconclusive: 15.8 µM [inhibitor, full curve, poor fit]
44 | Cc1ccc(CNC(=O)C2CCC(=O)N2Cc2ccc(C)cc2)cc1 (stereo unspecified) | inconclusive: 89.1 µM [inhibitor, partial curve, poor fit]
45 | N#CCC(=O)N/N=C/c1cc(Br)ccc1OCc1cccc2ccccc12 | inconclusive: 39.8 µM [inhibitor, partial curve]
46 | COC(=O)C1=C(C)N(C(C)c2ccccc2)C(=O)/C1=C\c1ccco1 (stereo unspecified) | inconclusive: 50.1 µM [inhibitor, single point]
47 | COCCNC(=O)C(C)N1c2cccc3cccc(c23)S1(=O)=O (stereo unspecified) | inconclusive: 25.1 µM [inhibitor, single point]
48 | Cc1nc2ccc3nc(NC(=O)c4ccco4)sc3c2s1 | inconclusive: 17.8 µM [inhibitor, full curve, poor fit]
49 | Cc1cc(C)cc(NC(=O)COc2coc(CN3CCc4ccccc43)cc2=O)c1 | inconclusive: 25.1 µM [inhibitor, full curve]
50 | Cc1ccc2nc(NC(=O)C3CCN(S(=O)(=O)c4cccs4)CC3)sc2c1 | inconclusive: 63.1 µM [inhibitor, partial curve, poor fit]
51 | C#CCOCCOCCOCCNc1nc(N2CCN(C(=O)C(CCC(=O)O)n3cc(C(N)CC(C)C)nn3)CC2)nc(N2CCN(C(=O)C(Cc3cc4ccccc4[nH]3)n3cc(C(N)Cc4ccc(O)cc4)nn3)CC2)n1 (stereo unspecified) | inconclusive: 14.1 µM [inhibitor, partial curve, poor fit]
52 | COc1ccc2oc(C(=O)OCC(=O)Nc3cc(S(=O)(=O)N4CCOCC4)ccc3OC)c(C)c2c1 | inconclusive: 28.2 µM [inhibitor, partial curve, poor fit]
53 | COC(=O)c1cccc(NC(=O)CSc2nc(O)c(-c3ccccc3)c(=O)[nH]2)c1 | inconclusive: 56.2 µM [inhibitor, partial curve, poor fit]
54 | CC1CC=CC2C1C(=O)N(Cc1ccccc1)C2c1ccc(-c2ccc(F)cc2)cc1F (stereo unspecified) | inconclusive: 89.1 µM [inhibitor, single point]
55 | O=C(CCS(=O)(=O)c1ccc(Br)cc1)NCCc1ccccc1 | active: 50.1 µM
56 | COc1cccc(N2CCN(CC(=O)NC(=O)NCc3ccco3)CC2)c1 | active: 12.6 µM
57 | N#C/C(=C/c1cc(Cl)c(O)c(Cl)c1)C(=O)N1CCCCC1 | inactive
58 | CC(=O)Nc1ccc(NC(=O)c2ccc(COc3ccccc3Br)o2)cc1 | inconclusive: 89.1 µM [inhibitor, single point]
59 | CCCCCCCCCCCCCC(=O)Nc1ccc(/C=C/c2ccnc3ccccc23)cc1 | inconclusive: 56.2 µM [inhibitor, partial curve, poor fit]
60 | Cc1cc(N)ccc1N1CCCC1 | inconclusive: 39.8 µM [inhibitor, single point]
61 | O=C(CSc1nnc(NC(=O)c2c(F)cccc2F)s1)NCc1ccco1 | inconclusive: 7.08 µM [inhibitor, partial curve, poor fit]

Given as a markdown table: part of the list above.

| Row | Structure (SMILES) | Potency |
| --- | --- | --- |
| 18 | CCOC(=O)C1=C(C)N(CCCC(=O)O)C(=O)NC1c1ccc([N+](=O)[O-])cc1 (stereo unspecified) | inactive |
| 19 | CCCCC(c1nnnn1Cc1ccco1)N1CCN(c2nc3ccccc3s2)CC1 (stereo unspecified) | inconclusive: 14.1 µM [inhibitor, partial curve, poor fit] |
| 20 | Nc1cc2sc(-c3ccc(C(=O)O)cc3)nc2cc1Cl | inconclusive: 22.4 µM [inhibitor, single point] |
